According to PMC5627455:
These are yes or no findings as the source states them, for the method shown. Binding seen in cells or lysates may run through a third protein. Some results given as binding are weak or reduced against the parent protein; the word gives no strength. For part of these data: Where a sequence is shown, tags or fusion partners need not be part of it.

Protein sequences, listed by entry. Tags and fused reporters are not part of them.
UniProt Q8TEK3: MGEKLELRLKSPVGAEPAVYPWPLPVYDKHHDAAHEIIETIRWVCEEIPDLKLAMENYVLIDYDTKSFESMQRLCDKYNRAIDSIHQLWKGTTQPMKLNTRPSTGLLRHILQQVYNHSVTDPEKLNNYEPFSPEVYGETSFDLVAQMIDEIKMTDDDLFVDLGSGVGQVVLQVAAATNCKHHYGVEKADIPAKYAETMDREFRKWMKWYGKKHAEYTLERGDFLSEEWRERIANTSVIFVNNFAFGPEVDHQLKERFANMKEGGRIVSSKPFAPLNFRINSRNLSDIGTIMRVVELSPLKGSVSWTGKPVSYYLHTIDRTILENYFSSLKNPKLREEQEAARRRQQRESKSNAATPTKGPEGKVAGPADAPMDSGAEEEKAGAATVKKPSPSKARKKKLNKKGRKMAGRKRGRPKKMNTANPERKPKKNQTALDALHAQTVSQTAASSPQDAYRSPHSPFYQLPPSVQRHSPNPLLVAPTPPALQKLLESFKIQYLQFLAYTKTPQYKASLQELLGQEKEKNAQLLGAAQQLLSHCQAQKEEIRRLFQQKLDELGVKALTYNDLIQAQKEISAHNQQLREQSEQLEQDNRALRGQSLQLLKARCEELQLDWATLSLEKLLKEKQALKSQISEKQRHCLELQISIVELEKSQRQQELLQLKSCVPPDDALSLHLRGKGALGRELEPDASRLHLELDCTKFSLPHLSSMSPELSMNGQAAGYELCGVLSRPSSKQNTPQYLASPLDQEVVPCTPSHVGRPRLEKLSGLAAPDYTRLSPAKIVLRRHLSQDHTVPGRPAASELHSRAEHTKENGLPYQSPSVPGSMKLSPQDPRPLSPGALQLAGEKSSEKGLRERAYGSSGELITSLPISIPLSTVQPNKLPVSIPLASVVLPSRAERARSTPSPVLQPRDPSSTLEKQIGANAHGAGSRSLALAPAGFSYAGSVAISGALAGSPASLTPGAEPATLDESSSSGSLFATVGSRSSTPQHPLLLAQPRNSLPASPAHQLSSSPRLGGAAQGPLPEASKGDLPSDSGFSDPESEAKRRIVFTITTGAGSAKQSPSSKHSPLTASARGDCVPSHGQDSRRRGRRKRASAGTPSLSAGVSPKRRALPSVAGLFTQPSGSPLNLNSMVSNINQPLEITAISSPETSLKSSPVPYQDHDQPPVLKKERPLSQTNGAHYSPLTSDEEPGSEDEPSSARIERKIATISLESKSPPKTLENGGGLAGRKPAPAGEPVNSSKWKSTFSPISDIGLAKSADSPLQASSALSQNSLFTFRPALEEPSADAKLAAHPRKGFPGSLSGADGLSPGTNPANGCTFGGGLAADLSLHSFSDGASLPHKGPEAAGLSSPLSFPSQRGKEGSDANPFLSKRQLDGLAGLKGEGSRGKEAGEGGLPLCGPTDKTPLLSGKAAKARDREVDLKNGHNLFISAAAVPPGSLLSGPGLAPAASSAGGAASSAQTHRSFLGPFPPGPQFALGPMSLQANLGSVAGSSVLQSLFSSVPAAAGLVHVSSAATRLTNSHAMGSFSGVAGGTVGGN
UniProt Q8BX22: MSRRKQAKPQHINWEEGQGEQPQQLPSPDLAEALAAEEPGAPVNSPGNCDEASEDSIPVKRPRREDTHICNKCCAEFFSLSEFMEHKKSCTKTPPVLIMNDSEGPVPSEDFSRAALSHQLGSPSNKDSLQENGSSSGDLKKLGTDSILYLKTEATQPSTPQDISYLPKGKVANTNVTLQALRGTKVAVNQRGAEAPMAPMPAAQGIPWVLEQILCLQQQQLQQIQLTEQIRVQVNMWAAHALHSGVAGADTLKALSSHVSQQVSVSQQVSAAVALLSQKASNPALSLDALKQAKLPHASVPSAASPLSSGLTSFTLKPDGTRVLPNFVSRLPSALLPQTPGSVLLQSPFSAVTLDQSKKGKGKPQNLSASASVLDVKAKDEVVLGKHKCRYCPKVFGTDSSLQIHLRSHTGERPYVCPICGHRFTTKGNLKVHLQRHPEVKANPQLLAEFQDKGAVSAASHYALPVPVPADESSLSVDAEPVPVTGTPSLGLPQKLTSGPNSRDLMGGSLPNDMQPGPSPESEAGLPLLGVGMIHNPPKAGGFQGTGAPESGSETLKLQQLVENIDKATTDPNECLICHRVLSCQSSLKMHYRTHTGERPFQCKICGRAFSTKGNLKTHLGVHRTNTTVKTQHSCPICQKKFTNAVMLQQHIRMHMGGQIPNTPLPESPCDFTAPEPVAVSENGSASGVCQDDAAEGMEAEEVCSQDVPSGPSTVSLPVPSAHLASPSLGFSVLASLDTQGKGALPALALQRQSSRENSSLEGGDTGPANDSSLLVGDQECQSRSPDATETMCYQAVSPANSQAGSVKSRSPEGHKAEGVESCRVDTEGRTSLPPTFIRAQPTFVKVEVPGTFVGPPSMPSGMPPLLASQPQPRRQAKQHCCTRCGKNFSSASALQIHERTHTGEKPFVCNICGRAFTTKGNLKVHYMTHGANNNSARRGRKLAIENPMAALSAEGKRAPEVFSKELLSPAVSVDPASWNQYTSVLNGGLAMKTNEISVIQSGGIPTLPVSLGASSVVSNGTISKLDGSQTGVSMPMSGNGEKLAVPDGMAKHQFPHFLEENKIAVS
UniProt Q6XZL8: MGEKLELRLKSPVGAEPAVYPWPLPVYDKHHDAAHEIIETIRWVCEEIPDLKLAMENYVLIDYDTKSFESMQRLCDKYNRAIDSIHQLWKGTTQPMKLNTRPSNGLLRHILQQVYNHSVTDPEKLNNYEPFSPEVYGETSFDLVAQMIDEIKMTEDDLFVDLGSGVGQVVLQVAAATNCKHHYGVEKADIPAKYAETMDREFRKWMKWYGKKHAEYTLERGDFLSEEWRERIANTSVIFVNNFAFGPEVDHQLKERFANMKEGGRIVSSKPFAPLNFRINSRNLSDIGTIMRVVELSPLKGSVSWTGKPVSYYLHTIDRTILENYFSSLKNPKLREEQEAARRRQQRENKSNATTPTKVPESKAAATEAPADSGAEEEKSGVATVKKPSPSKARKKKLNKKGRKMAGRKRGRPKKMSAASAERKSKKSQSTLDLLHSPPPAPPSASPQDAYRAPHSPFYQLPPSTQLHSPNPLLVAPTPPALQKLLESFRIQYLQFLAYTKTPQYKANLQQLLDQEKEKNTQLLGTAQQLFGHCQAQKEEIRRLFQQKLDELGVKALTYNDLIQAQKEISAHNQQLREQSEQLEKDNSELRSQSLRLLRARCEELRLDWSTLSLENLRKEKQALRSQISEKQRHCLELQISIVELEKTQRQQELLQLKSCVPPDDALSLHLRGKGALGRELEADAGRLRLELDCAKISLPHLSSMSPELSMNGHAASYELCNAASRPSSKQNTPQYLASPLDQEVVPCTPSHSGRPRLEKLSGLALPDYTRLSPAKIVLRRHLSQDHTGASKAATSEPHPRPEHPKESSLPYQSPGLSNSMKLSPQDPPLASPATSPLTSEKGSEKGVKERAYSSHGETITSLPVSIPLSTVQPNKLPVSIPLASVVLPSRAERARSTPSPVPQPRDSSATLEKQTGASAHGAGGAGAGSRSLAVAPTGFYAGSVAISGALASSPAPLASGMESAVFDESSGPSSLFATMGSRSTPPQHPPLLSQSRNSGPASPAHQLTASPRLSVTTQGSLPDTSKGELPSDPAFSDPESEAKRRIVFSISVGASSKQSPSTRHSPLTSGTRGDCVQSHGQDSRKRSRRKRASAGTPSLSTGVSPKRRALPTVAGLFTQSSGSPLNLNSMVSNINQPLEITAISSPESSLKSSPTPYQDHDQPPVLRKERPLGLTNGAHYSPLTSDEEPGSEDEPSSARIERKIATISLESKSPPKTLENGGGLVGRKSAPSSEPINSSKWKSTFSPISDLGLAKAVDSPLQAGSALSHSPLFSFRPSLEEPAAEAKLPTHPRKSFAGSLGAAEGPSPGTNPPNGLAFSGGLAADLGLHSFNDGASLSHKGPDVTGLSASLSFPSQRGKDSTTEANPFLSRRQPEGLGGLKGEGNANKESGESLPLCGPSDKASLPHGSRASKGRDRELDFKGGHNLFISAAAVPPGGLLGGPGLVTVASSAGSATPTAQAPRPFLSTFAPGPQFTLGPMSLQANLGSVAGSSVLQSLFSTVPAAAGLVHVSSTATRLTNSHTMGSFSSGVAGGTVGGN

Experiments:
[1] = target: DOT1-like histone H3K79 methyltransferase (DOT1L) in 293 T cells (human (endogenous in 293 T)) (UniProt Q8TEK3); experiment: co-IP; 293 T cells transfected with HA-tagged SALL4 constructs or empty vector; anti-DOT1L antibody (Bethyl) on Dynabeads Protein G; Western blot with anti-HA
[2] = target: SALL4, endogenous in MLL-AF9-transformed mouse Lin- bone marrow cells (mouse (endogenous in MLL-AF9-transformed Lin- BM cells)) (UniProt Q8BX22); experiment: co-IP; MLL-AF9-transformed mouse Lin- BM cells, endogenous proteins, with or without 4-OHT (Sall4 deletion); anti-Sall4 antibody for IP; Western blot

| binding [1] | binding [2] | Molecule |
| --- | --- | --- |
| binds | – | HA-tagged SALL4A isoform (from UniProt Q9UJQ4-1 1-1053) |
| – | binds | DOT1L, endogenous in MLL-AF9-transformed mouse Lin- bone marrow cells (from UniProt Q6XZL8 1-1540) (enzyme) |
| binds | – | HA-tagged SALL4B isoform (protein, UniProt Q9UJQ4-2 1-616) MSRRKQAKPQHINSEEDQGEQQPQQQTPEFADAAPAAPAAGELGAPVNHPGNDEVASEDEATVKRLRREETHVCEKCCAEFFSISEFLEHKKNCTKNPPVLIMNDSEGPVPSEDFSGAVLSHQPTSPGSKDCHRENGGSSEDMKEKPDAESVVYLKTETALPPTPQDISYLAKGKVANTNVTLQALRGTKVAVNQRSADALPAPVPGANSIPWVLEQILCLQQQQLQQIQLTEQIRIQVNMWASHALHSSGAGADTLKTLGSHMSQQVSAAVALLSQKAGSQGLSLDALKQAKLPHANIPSATSSLSPGLAPFTLKPDGTRVLPNVMSRLPSALLPQAPGSVLFQSPFSTVALDTSKKGKGKPPNISAVDVKPKDEAALYKHKCRSSLPSTFIRAPPTYVKVEVPGTFVGPSTLSPGMTPLLAAQPRRQAKQHGCTRCGKNFSSASALQIHERTHTGEKPFVCNICGRAFTTKGNLKVHYMTHGANNNSARRGRKLAIENTMALLGTDGKRVSEIFPKEILAPSVNVDPVVWNQYTSMLNGGLAVKTNEISVIQSGGVPTLPVSLGATSVVNNATVSKMDGSQSGISADVEKPSATDGVPKHQFPHFLEENKIAVS |
